Measurements reported in CN114478784A.
Results are given in words; binding and its absence hold for the method and conditions named. Some results given as binding are weak or reduced against the parent protein; the word gives no strength.

Sequences of proteins named here, by UniProt entry; tags and fusion partners are left off.
UniProt P09104: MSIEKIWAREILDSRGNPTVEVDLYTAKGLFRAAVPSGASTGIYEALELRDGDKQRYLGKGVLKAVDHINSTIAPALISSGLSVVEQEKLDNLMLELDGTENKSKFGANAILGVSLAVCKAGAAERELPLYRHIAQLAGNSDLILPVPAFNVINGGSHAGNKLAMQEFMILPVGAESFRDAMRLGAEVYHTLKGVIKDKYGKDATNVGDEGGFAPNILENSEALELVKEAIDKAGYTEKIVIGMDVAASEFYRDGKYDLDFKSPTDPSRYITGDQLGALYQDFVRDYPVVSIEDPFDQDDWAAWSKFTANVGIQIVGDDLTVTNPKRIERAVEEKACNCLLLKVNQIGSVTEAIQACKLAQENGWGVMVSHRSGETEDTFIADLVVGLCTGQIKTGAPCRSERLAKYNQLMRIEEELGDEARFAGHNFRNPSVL

Legend:
[1] = target: 纯化的ENO2蛋白 (purified ENO2 protein coated in Example 7) (UniProt P09104); assay: ELISA result of step 2, restated after the immunofluorescence expression check
[2] = target: 纯化的ENO2蛋白 (purified ENO2 protein coated in Example 7) (UniProt P09104); assay: ELISA, purified ENO2 coated at 100 ng/well, 293T supernatant, HRP secondary, OD450

重组1C5单克隆抗体 (1C5mG1+1C5mk co-transfected in 293T cells) (from UniProt P01868 1-324; P01837 1-107) (antibody)
binding [1]: binds | binding [2]: binds
